Source: article PMC5436757
A weaker result is weaker than the reference pair of the same experiment.

Amino acid sequences for entries named in this document (tags omitted). A change or cut given only in a name is not applied to a line headed by its entry.
UniProt Q9RYE6: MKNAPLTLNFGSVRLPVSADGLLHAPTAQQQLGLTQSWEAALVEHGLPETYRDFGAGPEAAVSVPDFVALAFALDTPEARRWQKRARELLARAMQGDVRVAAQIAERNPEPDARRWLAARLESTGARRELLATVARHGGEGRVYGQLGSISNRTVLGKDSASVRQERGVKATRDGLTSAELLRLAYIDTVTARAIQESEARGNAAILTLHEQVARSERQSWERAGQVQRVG

Target: DdrC (Deinococcus radiodurans R1 ATCC 13939) (UniProt Q9RYE6)
Experiment: EMSA
Conditions: no shift at 40 nM DdrC, lower affinity than ss 67-mer, 3.3 nM DNA, DdrC up to 2.8 uM; Buffer A: 40 mM Tris-HCl pH 7.8, 5 mM MgCl2, 1.5 mM DTT, 50 mM NaCl, 12% glycerol; 4 C (15 min stated for plasmid/viral DNA); gels run at 4 C; recombinant protein; residues 1-231; protein details: C-terminal 6xHis (pET26b)

## CTGTTTAAGAAATTCACCTCGAAAGCAAGCTGATAAACCGATACAATTAAAGGCTCCTTTTGGAGCC (double strand) [oligo-67 ds]
  binding result: binds more weakly
